{"source": "PubChem BioAssay AID504648", "about": "(National Center for Advancing Translational Sciences (NCATS), 2011)", "note": "The campaign covered roughly 390,000 compounds. About 610 (0.16%) were called active. This list was built around the results that the source calls inconclusive (neither active nor inactive); the mix of calls is not that of the screen. The call rests on the fitted dose curve; in most records, active means well fitted inhibition curve with a large enough effect; inconclusive means small, poorly fitted or top-dose-only effect, or effect the other way, or another doubt; inactive means no such curve, though single readings can be large or run the other way. Potencies beside an inconclusive call are fits to weak or partial responses and may not hold up. Potency means the concentration at half of the fitted maximal effect."}
{"experiment": "Nrf2 qHTS screen for inhibitors: counterscreen for cytotoxicity", "conditions": "A549 ARE-Fluc cells, CellTiter-Fluor viability, 18-24 h; series mostly up to 46 µM", "in_short": "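A549 ARE-Fluc cells in 5% FBS OPTI-MEM, 5000 cells/well, rested 2 h then exposed to compounds in concentration-response for 18-24 h at 37 °C. Viability by CellTiter-Fluor fluorescence (Ex 405/Em 525) after 30 min; luciferase luminescence (BugLite, 15 min, RT) read afterwards.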"}
{"smiles": "CCOc1ccc(S(=O)(=O)Nc2cccc(Cl)c2)cc1", "Potency": "inconclusive: 18.4 µM [falling, single point]"}
{"smiles": "Cc1ccc(NC(=O)NC(C)c2c(-n3cccc3)sc(C)c2C)cc1F", "note": "(centres undefined)", "Potency": "inconclusive: 23.1 µM [falling, single point]"}
{"smiles": "O=c1[nH]c(=O)n(C2OC(CO)C(O)C2O)cc1F", "note": "(centres undefined)", "Potency": "inconclusive: 4.11 µM [falling, partial curve]"}
{"smiles": "Cc1cccc(N(C(=O)c2ccco2)C(C(=O)NC2CCCC2)c2ccco2)c1C", "note": "(centres undefined)", "Potency": "inactive"}
{"smiles": "CCC(c1nnnn1C1CCCC1)N(Cc1cccs1)Cc1cc2cc(C)ccc2[nH]c1=O", "note": "(centres undefined)", "Potency": "inconclusive: 20.6 µM [falling, single point]"}
{"smiles": "Cc1ccc(SCC(CC(C)C)N2CCN(CCc3ccccc3)CCC2=O)cc1", "note": "(centres undefined)", "Potency": "inconclusive: 20.6 µM [falling, single point]"}
{"smiles": "CN1CCN(S(=O)(=O)c2cccc(C(=O)Nc3sc4c(c3C(N)=O)CCCC4)c2)CC1", "Potency": "inconclusive: 29.1 µM [falling, single point]"}
{"smiles": "Cc1cc2oc(C(=O)N(Cc3ccc(N(C)C)cc3)CC3CCCO3)c(C)c2cc1Cl", "note": "(centres undefined)", "Potency": "inactive"}
{"smiles": "CCOc1ccc(Cn2nnc(C(=O)Nc3ccc(OC)cc3OC)c2N)cc1", "Potency": "inconclusive: 3.26 µM [activator, partial curve, poor fit]"}
{"smiles": "CC(=NNc1nc2ccccc2s1)c1ncccn1", "Potency": "inconclusive: 5.8 µM [falling, partial curve, poor fit]"}
{"smiles": "COc1ccccc1Nc1nc(N2CCCC2)nc(N2CCOCC2)n1", "Potency": "inconclusive: 10.3 µM [activator, partial curve, poor fit]"}
{"smiles": "O=C(NCCN1CCOCC1)c1ccc(Cl)c(S(=O)(=O)N2CCCCCC2)c1", "Potency": "inactive"}
{"smiles": "O=C(/C=C/c1ccccc1)Nc1nc(-c2ccncc2)cs1", "Potency": "inconclusive: 11.6 µM [falling, partial curve, poor fit]"}
{"smiles": "O=C(CSc1ccc2ccccc2n1)N/N=C/c1ccccc1O", "Potency": "inconclusive: 29.1 µM [falling, single point]"}
{"smiles": "CCOC(=O)C(C)/C(C)=N\\Nc1ccc([N+](=O)[O-])cc1[N+](=O)[O-]", "note": "(centres undefined)", "Potency": "inconclusive: 25.9 µM [falling, partial curve, poor fit]"}
{"smiles": "CC(=O)NNc1nc(-c2ccccc2)cs1", "Potency": "inconclusive: 25.9 µM [falling, partial curve, poor fit]"}
{"smiles": "C/C(=N\\NC(=O)c1cccc(Br)c1)c1ccccn1", "Potency": "inconclusive: 9.2 µM [falling, partial curve, poor fit]"}
{"smiles": "COc1cccc(C2C=C(c3cccs3)Nc3ncnn32)c1OC", "note": "(centres undefined)", "Potency": "inconclusive: 20.6 µM [activator, single point]"}
{"smiles": "Cc1cccn2c(=O)c3cc(C(=O)NCC4CCCO4)c(=N)n(C4CCCCC4)c3nc12", "note": "(centres undefined)", "Potency": "inconclusive: 29.1 µM [activator, single point]"}
{"smiles": "COc1ccc(-c2[nH]ncc2/C=C(/C#N)C(=O)NC2CCCCCC2)cc1", "Potency": "inconclusive: 20.6 µM [falling, partial curve, poor fit]"}
{"smiles": "COC(=O)N/N=C/c1cc(N=Nc2ccccc2Cl)ccc1O", "Potency": "inconclusive: 20.6 µM [falling, partial curve, poor fit]"}
{"smiles": "Cc1cccc(OCCCCn2c(C3CC(=O)N(c4ccc(C)cc4C)C3)nc3ccccc32)c1", "note": "(centres undefined)", "Potency": "inconclusive: 18.4 µM [falling, single point]"}
{"smiles": "CN=Cc1cc(-c2ccccc2)sc1O", "Potency": "inconclusive: 25.9 µM [falling, partial curve, poor fit]"}
{"smiles": "CN(C)CCCN1c2ccccc2Sc2ccc3ccccc3c21", "Potency": "inconclusive: 16.4 µM [falling, single point]"}
{"smiles": "CCc1ccc(C2=C(C)C(N3CCC(C(=O)NCc4ccc(C)o4)CC3)=NS2(=O)=O)cc1", "Potency": "inconclusive: 6.51 µM [activator, full curve, poor fit]"}
{"smiles": "COc1ccc(Nc2c3c(nc4ccccc24)CCC3)cc1", "Potency": "inconclusive: 29.1 µM [falling, single point]"}
{"smiles": "O=C(COC(=O)c1ccc(S(=O)(=O)NCc2ccco2)cc1)NCC1CCCCC1", "Potency": "inconclusive: 6.51 µM [falling, partial curve, poor fit]"}
{"smiles": "Nc1ccccc1SCC(=O)Nc1ccc2c(c1)OCCO2", "Potency": "inconclusive: 32.6 µM [falling, partial curve, poor fit]"}
{"smiles": "O=C(CCN1C(=O)/C(=C\\c2ccco2)SC1=S)Nc1ccc(C(=O)O)c(O)c1", "Potency": "inconclusive: 20.6 µM [falling, partial curve, poor fit]"}
{"smiles": "COc1ccc(CNc2cc(C)ccn2)c(O)c1", "Potency": "inconclusive: 0.092 µM [falling, full curve, poor fit]"}
{"smiles": "NNC(=O)c1[nH]c2ccc(Br)cc2c1-c1ccccc1", "Potency": "inconclusive: 20.6 µM [falling, partial curve, poor fit]"}
{"smiles": "COc1ccc(/C=N/Nc2nnc(C)n2N)cc1OC(C)=O", "Potency": "inactive"}
{"smiles": "CC(C)C[C@H](NC(=O)c1nc[nH]c1C(=O)N[C@@H](CC(C)C)C(=O)OC(C)(C)C)C(=O)OC(C)(C)C", "Potency": "inconclusive: 32.6 µM [falling, partial curve, poor fit]"}
{"smiles": "COc1ccc(-c2csc(C3=C(O)CN(Cc4ccc(Cl)cc4)C3=N)n2)cc1OC", "Potency": "inconclusive: 23.1 µM [falling, partial curve, poor fit]"}
{"smiles": "Cc1ccc(NC(CNS(=O)(=O)c2ccc(Cl)cc2)c2ccccc2)cc1", "note": "(centres undefined)", "Potency": "inconclusive: 20.6 µM [falling, single point]"}
{"smiles": "COc1cccc2nc(-c3cccs3)nc(NN3C(=O)C=C(C)C3=O)c12", "Potency": "inconclusive: 16.4 µM [falling, partial curve, poor fit]"}
{"smiles": "Nc1ccccc1C(=O)NNc1c2ccccc2nc2ccccc12", "Potency": "inconclusive: 20.6 µM [falling, single point]"}
{"smiles": "CN(Cc1nccs1)C(=O)c1ccc(OC2CCN(CCc3ccccc3)CC2)cc1", "Potency": "inconclusive: 23.1 µM [falling, partial curve, poor fit]"}
{"smiles": "Oc1ccccc1/C=N/Nc1cccc2cccnc12", "Potency": "inconclusive: 20.6 µM [falling, single point]"}
{"smiles": "O=C(Cc1ccc(-c2ccccc2)cc1)Nc1ccccn1", "Potency": "inconclusive: 18.4 µM [falling, partial curve, poor fit]"}
{"smiles": "O=S(=O)(Nc1cc(Br)cc2cccnc12)c1ccccc1", "Potency": "inconclusive: 29.1 µM [falling, single point]"}
{"smiles": "O=[N+]([O-])c1ccc(N2CCCCC2)cn1", "Potency": "inconclusive: 9.2 µM [falling, partial curve, poor fit]"}
{"smiles": "O=C(Nc1ncc([N+](=O)[O-])s1)C1COc2ccccc2O1", "note": "(centres undefined)", "Potency": "active: 20.6 µM"}
{"smiles": "O=C(Cc1cccc2ccccc12)Nc1ccc(Br)cc1C(=O)O", "Potency": "inactive"}
{"smiles": "COc1cc(C(CCN2CCCC2)c2c(OC)cc(OC)c3c(-c4ccccc4)cc(=O)oc23)cc(OC)c1OC", "note": "(centres undefined)", "Potency": "inactive"}
{"smiles": "COc1ccc(OC)c2c1CCC2=O", "Potency": "inactive"}
{"smiles": "Cc1c(C(=O)NCc2ccccc2)oc2c1-c1[nH]ncc1CC2", "Potency": "inactive"}
{"smiles": "CCOC(=O)c1c(C)[nH]c(C(=O)COC(=O)CCSc2ccccc2)c1C", "Potency": "inactive"}
{"smiles": "O=C(Nc1ccc(N2CCCCC2)cc1)c1ccc([N+](=O)[O-])o1", "Potency": "inconclusive: 20.6 µM [falling, single point]"}
{"smiles": "CCc1ccc2c(c1)C1(C(=O)N2)N2CCCC2C(C(=O)c2ccc3ccccc3c2)C12C(=O)Nc1ccccc12", "note": "(centres undefined)", "Potency": "inconclusive: 29.1 µM [falling, single point]"}
{"smiles": "CCOc1ccc(-c2nnc(SCC(=O)NCCc3ccccc3)nc2-c2ccc(OCC)c(OC)c2)cc1OC", "Potency": "inconclusive: 0.411 µM [falling, partial curve, poor fit]"}
{"smiles": "CC1=C(c2ccccc2)SC2=NCCN21", "Potency": "inactive"}
{"smiles": "CCOC(=O)c1c(NC(C)=O)sc2c(OCC(O)CN(CC)CC)c(Br)ccc12", "note": "(centres undefined)", "Potency": "inconclusive: 20.6 µM [falling, single point]"}
{"smiles": "Cc1cc(/C=C2\\SC(=S)NC2=O)c(C)n1-c1cccc(O)c1", "Potency": "inconclusive: 20.6 µM [falling, single point]"}
{"smiles": "CCOC(=O)N/N=C/c1ccccc1F", "Potency": "inconclusive: 29.1 µM [activator, partial curve, poor fit]"}
{"smiles": "CCC(NC(=O)NCc1ccccc1)(C(F)(F)F)C(F)(F)F", "Potency": "inactive"}
{"smiles": "COC(=O)C1=CN(Cc2ccc(F)cc2)C=C(C(=O)OC)C1c1cc(OC)c(OC)c(OC)c1", "Potency": "inconclusive: 32.6 µM [falling, partial curve, poor fit]"}
{"smiles": "COC(=O)Cc1ccc(NC(=O)c2ccc(C(C)(C)C)cc2)cc1", "Potency": "inconclusive: 18.4 µM [falling, single point]"}
{"smiles": "COc1ccc(N=C2C(=Nc3ccc(OC)cc3)N(c3ccc(N(C)C)cc3)C(=S)N2c2ccc(OC)cc2)cc1", "Potency": "inconclusive: 18.4 µM [falling, single point]"}
{"smiles": "O=C(CSc1nc(-c2ccco2)cc(C(F)(F)F)n1)Nc1ccc2c(c1)CCC2", "Potency": "inconclusive: 25.9 µM [falling, single point]"}
{"smiles": "CCOC(=O)c1cccc(NC(=O)C2CCN(S(=O)(=O)c3cccs3)CC2)c1", "Potency": "inconclusive: 18.4 µM [falling, single point]"}
{"smiles": "O=C1NC2=C(CCc3ccccc32)C(c2ccc(Br)cc2)N1", "note": "(centres undefined)", "Potency": "inconclusive: 29.1 µM [falling, single point]"}
{"smiles": "O=C(O)c1ccc(Cl)c(S(=O)(=O)N(Cc2ccccc2)c2ccccc2)c1", "Potency": "inactive"}
{"smiles": "Cc1cc(C)n(-c2cc(N3CCN(C(=O)c4ccc(C(C)(C)C)cc4)CC3)ccc2[N+](=O)[O-])n1", "Potency": "inconclusive: 25.9 µM [falling, single point]"}
